Assay results published in article PMC314469, “Protein Interaction Networks by Proteome Peptide Scanning” (PLoS Biology, 2004).
No constants are given. Whether binding was seen depends on the method and setting. In cells and extracts the contact can be indirect. Some binding calls cover weakened binding; strength is not graded here. For part of these data: Tags and fused reporters may be left off the sequences shown.

Protein sequences, listed by entry. Tags and fused reporters are not part of them.
UniProt P29311: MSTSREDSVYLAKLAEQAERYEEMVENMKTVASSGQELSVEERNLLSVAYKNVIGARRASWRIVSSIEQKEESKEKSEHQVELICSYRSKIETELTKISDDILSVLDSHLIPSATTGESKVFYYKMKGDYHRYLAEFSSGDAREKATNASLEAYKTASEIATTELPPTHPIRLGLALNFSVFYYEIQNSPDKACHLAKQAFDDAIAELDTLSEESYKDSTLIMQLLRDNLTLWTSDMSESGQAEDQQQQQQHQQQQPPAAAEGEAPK

How the values were obtained:
[1] = molecular target: T1, GST-Abp1 SH3 domain (S. cerevisiae) (UniProt P15891); experiment: pull-down; 100 μg GST–Abp1SH3 bound to glutathione–sepharose incubated 2 h at 4°C with extract of yeast expressing the TAP-tagged protein, IPP-150 buffer (10 mM Tris–HCl pH 8.0, 150 mM NaCl, 0.1% NP-40); blot with PAP antibody; only the target purified
T1 sequence: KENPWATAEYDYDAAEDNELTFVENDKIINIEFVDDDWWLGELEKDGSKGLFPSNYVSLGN

[2] = molecular target: T2, GST-Abp1 SH3 domain (S. cerevisiae), P15891; experiment: as above; conditions: remark: other sources report otherwise
T2 chain: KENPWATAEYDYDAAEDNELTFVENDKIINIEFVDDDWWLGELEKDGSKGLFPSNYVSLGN

[3] = molecular target: TAP-tagged Bmh1 (S. cerevisiae) (UniProt P29311); experiment: co-IP; extract of yeast expressing the TAP-tagged protein on IgG–sepharose 2 h at 4°C, washed in IPP-150, released with TEV protease; blot with anti-Abp1 antibody
[4] = molecular target: T3, TAP-tagged Prk1 (S. cerevisiae) (UniProt P40494); experiment: as above
T3 sequence: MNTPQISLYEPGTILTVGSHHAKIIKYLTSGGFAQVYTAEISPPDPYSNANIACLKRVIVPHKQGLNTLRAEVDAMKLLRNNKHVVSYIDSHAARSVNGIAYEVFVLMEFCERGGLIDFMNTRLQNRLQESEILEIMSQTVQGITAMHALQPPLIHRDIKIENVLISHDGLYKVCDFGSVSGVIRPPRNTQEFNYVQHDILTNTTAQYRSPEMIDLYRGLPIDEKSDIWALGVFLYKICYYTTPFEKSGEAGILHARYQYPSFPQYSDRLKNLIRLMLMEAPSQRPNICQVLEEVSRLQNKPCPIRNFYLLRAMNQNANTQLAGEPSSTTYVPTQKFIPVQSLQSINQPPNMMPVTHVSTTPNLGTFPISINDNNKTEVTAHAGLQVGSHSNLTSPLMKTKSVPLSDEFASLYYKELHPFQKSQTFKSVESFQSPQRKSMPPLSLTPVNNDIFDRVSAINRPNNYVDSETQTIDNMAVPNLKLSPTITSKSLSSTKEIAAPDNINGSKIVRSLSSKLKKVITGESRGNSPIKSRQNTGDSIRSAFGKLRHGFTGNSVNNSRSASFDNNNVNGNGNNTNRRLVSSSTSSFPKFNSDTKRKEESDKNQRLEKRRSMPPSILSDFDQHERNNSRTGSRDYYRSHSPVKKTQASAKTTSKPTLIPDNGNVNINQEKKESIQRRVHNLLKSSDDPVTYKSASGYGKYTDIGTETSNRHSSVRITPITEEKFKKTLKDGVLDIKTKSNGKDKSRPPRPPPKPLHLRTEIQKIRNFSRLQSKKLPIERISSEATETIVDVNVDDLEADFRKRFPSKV

[5] = molecular target: T4, TAP-tagged Scp1 (S. cerevisiae) (UniProt Q08873); experiment: as above
T4 sequence: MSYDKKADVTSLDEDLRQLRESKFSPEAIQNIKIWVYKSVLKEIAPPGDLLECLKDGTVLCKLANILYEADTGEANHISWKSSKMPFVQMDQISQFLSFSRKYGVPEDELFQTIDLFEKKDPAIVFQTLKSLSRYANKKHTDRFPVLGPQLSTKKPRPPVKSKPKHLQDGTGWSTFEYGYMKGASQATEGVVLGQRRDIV

[6] = molecular target: T5, TAP-tagged Yir003w (S. cerevisiae) (UniProt P40563); experiment: as above
T5 sequence: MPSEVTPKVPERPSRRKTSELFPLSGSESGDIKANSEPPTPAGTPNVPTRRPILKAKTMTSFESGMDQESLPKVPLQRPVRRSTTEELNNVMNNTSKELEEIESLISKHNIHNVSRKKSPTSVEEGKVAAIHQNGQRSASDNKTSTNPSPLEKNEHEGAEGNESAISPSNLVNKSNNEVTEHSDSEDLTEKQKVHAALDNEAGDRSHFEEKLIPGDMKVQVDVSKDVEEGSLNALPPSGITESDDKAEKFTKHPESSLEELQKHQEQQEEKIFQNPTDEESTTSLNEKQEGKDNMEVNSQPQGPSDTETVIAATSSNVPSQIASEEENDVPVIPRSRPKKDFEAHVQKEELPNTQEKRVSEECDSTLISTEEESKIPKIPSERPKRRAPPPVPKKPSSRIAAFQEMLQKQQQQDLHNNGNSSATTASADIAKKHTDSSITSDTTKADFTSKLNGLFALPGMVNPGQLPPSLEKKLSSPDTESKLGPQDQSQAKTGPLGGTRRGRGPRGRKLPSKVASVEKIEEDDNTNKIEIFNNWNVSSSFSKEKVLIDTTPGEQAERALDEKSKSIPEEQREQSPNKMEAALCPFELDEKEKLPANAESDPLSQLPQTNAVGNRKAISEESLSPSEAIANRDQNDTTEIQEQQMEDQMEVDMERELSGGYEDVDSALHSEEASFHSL

[7] = molecular target: T6, TAP-tagged Ynl094w (S. cerevisiae) (UniProt P53933); experiment: as above
T6 sequence: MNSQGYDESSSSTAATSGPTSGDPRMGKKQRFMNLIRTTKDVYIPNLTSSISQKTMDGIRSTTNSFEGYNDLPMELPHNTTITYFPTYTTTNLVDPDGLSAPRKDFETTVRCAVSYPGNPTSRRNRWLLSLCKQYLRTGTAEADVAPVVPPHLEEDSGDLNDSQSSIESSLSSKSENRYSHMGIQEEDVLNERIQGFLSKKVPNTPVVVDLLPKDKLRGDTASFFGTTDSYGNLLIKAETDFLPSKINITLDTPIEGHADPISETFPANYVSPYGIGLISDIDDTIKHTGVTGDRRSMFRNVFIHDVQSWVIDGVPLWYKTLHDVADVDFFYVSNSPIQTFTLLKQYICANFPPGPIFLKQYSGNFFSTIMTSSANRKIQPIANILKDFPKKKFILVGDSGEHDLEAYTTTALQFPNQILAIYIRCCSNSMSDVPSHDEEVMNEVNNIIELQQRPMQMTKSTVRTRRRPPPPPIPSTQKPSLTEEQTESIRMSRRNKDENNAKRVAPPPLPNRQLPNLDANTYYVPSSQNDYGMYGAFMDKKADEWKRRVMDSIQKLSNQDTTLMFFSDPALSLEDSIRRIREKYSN

B1: TAP-tagged Prk1 (protein, UniProt P40494 1-810)
chain: MNTPQISLYEPGTILTVGSHHAKIIKYLTSGGFAQVYTAEISPPDPYSNANIACLKRVIVPHKQGLNTLRAEVDAMKLLRNNKHVVSYIDSHAARSVNGIAYEVFVLMEFCERGGLIDFMNTRLQNRLQESEILEIMSQTVQGITAMHALQPPLIHRDIKIENVLISHDGLYKVCDFGSVSGVIRPPRNTQEFNYVQHDILTNTTAQYRSPEMIDLYRGLPIDEKSDIWALGVFLYKICYYTTPFEKSGEAGILHARYQYPSFPQYSDRLKNLIRLMLMEAPSQRPNICQVLEEVSRLQNKPCPIRNFYLLRAMNQNANTQLAGEPSSTTYVPTQKFIPVQSLQSINQPPNMMPVTHVSTTPNLGTFPISINDNNKTEVTAHAGLQVGSHSNLTSPLMKTKSVPLSDEFASLYYKELHPFQKSQTFKSVESFQSPQRKSMPPLSLTPVNNDIFDRVSAINRPNNYVDSETQTIDNMAVPNLKLSPTITSKSLSSTKEIAAPDNINGSKIVRSLSSKLKKVITGESRGNSPIKSRQNTGDSIRSAFGKLRHGFTGNSVNNSRSASFDNNNVNGNGNNTNRRLVSSSTSSFPKFNSDTKRKEESDKNQRLEKRRSMPPSILSDFDQHERNNSRTGSRDYYRSHSPVKKTQASAKTTSKPTLIPDNGNVNINQEKKESIQRRVHNLLKSSDDPVTYKSASGYGKYTDIGTETSNRHSSVRITPITEEKFKKTLKDGVLDIKTKSNGKDKSRPPRPPPKPLHLRTEIQKIRNFSRLQSKKLPIERISSEATETIVDVNVDDLEADFRKRFPSKV
binding [1]: binds

B2: TAP-tagged Yir003w, P40563 1-679 (protein)
chain: MPSEVTPKVPERPSRRKTSELFPLSGSESGDIKANSEPPTPAGTPNVPTRRPILKAKTMTSFESGMDQESLPKVPLQRPVRRSTTEELNNVMNNTSKELEEIESLISKHNIHNVSRKKSPTSVEEGKVAAIHQNGQRSASDNKTSTNPSPLEKNEHEGAEGNESAISPSNLVNKSNNEVTEHSDSEDLTEKQKVHAALDNEAGDRSHFEEKLIPGDMKVQVDVSKDVEEGSLNALPPSGITESDDKAEKFTKHPESSLEELQKHQEQQEEKIFQNPTDEESTTSLNEKQEGKDNMEVNSQPQGPSDTETVIAATSSNVPSQIASEEENDVPVIPRSRPKKDFEAHVQKEELPNTQEKRVSEECDSTLISTEEESKIPKIPSERPKRRAPPPVPKKPSSRIAAFQEMLQKQQQQDLHNNGNSSATTASADIAKKHTDSSITSDTTKADFTSKLNGLFALPGMVNPGQLPPSLEKKLSSPDTESKLGPQDQSQAKTGPLGGTRRGRGPRGRKLPSKVASVEKIEEDDNTNKIEIFNNWNVSSSFSKEKVLIDTTPGEQAERALDEKSKSIPEEQREQSPNKMEAALCPFELDEKEKLPANAESDPLSQLPQTNAVGNRKAISEESLSPSEAIANRDQNDTTEIQEQQMEDQMEVDMERELSGGYEDVDSALHSEEASFHSL
binding [2]: binds

B3: TAP-tagged Scp1 (protein, UniProt Q08873 1-200)
chain: MSYDKKADVTSLDEDLRQLRESKFSPEAIQNIKIWVYKSVLKEIAPPGDLLECLKDGTVLCKLANILYEADTGEANHISWKSSKMPFVQMDQISQFLSFSRKYGVPEDELFQTIDLFEKKDPAIVFQTLKSLSRYANKKHTDRFPVLGPQLSTKKPRPPVKSKPKHLQDGTGWSTFEYGYMKGASQATEGVVLGQRRDIV
binding [1]: binds

B4: TAP-tagged Ynl094w (protein, UniProt P53933 1-587)
chain: MNSQGYDESSSSTAATSGPTSGDPRMGKKQRFMNLIRTTKDVYIPNLTSSISQKTMDGIRSTTNSFEGYNDLPMELPHNTTITYFPTYTTTNLVDPDGLSAPRKDFETTVRCAVSYPGNPTSRRNRWLLSLCKQYLRTGTAEADVAPVVPPHLEEDSGDLNDSQSSIESSLSSKSENRYSHMGIQEEDVLNERIQGFLSKKVPNTPVVVDLLPKDKLRGDTASFFGTTDSYGNLLIKAETDFLPSKINITLDTPIEGHADPISETFPANYVSPYGIGLISDIDDTIKHTGVTGDRRSMFRNVFIHDVQSWVIDGVPLWYKTLHDVADVDFFYVSNSPIQTFTLLKQYICANFPPGPIFLKQYSGNFFSTIMTSSANRKIQPIANILKDFPKKKFILVGDSGEHDLEAYTTTALQFPNQILAIYIRCCSNSMSDVPSHDEEVMNEVNNIIELQQRPMQMTKSTVRTRRRPPPPPIPSTQKPSLTEEQTESIRMSRRNKDENNAKRVAPPPLPNRQLPNLDANTYYVPSSQNDYGMYGAFMDKKADEWKRRVMDSIQKLSNQDTTLMFFSDPALSLEDSIRRIREKYSN
binding [1]: binds

B5: Abp1 (protein, UniProt P15891 1-592)
chain: MALEPIDYTTHSREIDAEYLKIVRGSDPDTTWLIISPNAKKEYEPESTGSSFHDFLQLFDETKVQYGLARVSPPGSDVEKIIIIGWCPDSAPLKTRASFAANFAAVANNLFKGYHVQVTARDEDDLDENELLMKISNAAGARYSIQTSSKQQGKASTPPVKKSFTPSKSPAPVSKKEPVKTPSPAPAAKISSRVNDNNDDDDWNEPELKERDFDQAPLKPNQSSYKPIGKIDLQKVIAEEKAKEDPRLVQKPTAAGSKIDPSSDIANLKNESKLKRDSEFNSFLGTTKPPSMTESSLKNDDDKVIKGFRNEKSPAQLWAERKAKQNSGNAETKAEAPKPEVPEDEPEGEPDVKDLKSKFEGLAASEKEEEEMENKFAPPPKKSEPTIISPKPFSKPQEPVKAEEAEQPKTDYKKIGNPLPGMHIEADNEEEPEENDDDWDDDEDEAAQPPLPSRNVASGAPVQKEEPEQEEIAPSLPSRNSIPAPKQEEAPEQAPEEEIEEEAEEAAPQLPSRSSAAPPPPPRRATPEKKPKENPWATAEYDYDAAEDNELTFVENDKIINIEFVDDDWWLGELEKDGSKGLFPSNYVSLGN
binding [3]: no binding
binding [4]: binds
binding [5]: binds
binding [6]: binds
binding [7]: binds
